No constants are given. Whether binding was seen depends on the method and setting. Binding seen in cells or lysates may run through a third protein. Some entries that bind do so weakly or less than the wild type.

Chains of the proteins cited; added tags and fusions are not shown. Residues count along the entry.
UniProt P17936, residues 28-291: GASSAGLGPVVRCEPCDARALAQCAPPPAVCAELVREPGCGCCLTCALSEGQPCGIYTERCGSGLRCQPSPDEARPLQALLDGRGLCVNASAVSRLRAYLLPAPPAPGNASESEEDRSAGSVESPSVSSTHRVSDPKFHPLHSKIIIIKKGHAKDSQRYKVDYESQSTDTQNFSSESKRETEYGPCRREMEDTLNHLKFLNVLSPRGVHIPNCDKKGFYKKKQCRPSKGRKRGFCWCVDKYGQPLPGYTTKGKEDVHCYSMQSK

The experiment has as its target Insulin-like growth factor binding protein 3 (not stated (human or mouse cDNA cloned)) (UniProt P17936). Nature of the experiment: co-IP; total protein from IGFBP3-over hDPSCs 72 h post-transfection; lysate incubated with mouse anti-IGFBP3 (2 ug, sc-374365) or mouse IgG at 4 °C overnight, Protein A/G magnetic beads 2 h at 4 °C; blotted with rabbit anti-IGFBP3 and anti-DKK1.

B1: Dickkopf-related protein 1 (protein, UniProt O94907 32-266)
chain: TLNSVLNSNAIKNLPPPLGGAAGHPGSAVSAAPGILYPGGNKYQTIDNYQPYPCAEDEECGTDEYCASPTRGGDAGVQICLACRKRRKRCMRHAMCCPGNYCKNGICVSSDQNHFRGEIEETITESFGNDHSTLDGYSRRTTLSSKMYHTKGQEGSVCLRSSDCASGLCCARHFWSKICKPVLKEGQVCTKHRRKGSHGLEIFQRCYCGEGLSCRIQKDHHQASNSSRLHTCQRH
In the case of B1, the binding entry is “binds”.

The record behind these values is article PMC10291802.
